Reference: paper PMC12631847
Changes are numbered by the printed parent chain. No constants are given. Whether binding was seen depends on the method and setting. In cells and extracts the contact can be indirect. Some entries that bind do so weakly or less than the wild type. Tags and fused reporters may be left off the sequences shown.

Chains of the proteins cited; added tags and fusions are not shown.
UniProt Q9H3P7: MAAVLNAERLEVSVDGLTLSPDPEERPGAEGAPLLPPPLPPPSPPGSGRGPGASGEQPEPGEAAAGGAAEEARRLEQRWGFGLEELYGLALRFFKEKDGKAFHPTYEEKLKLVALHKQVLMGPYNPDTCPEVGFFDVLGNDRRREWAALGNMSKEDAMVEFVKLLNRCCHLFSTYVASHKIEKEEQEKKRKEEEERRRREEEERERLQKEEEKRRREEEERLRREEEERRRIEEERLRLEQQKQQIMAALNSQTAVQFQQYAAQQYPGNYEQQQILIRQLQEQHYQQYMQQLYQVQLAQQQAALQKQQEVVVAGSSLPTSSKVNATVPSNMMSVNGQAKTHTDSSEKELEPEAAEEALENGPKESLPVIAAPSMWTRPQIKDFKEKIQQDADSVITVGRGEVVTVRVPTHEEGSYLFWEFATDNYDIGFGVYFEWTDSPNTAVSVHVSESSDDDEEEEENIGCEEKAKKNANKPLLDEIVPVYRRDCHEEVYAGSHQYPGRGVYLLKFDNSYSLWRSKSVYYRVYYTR

What was measured:
HA-TBC1D22B-RQ (human) = biological target: T1, HA-TBC1D22B-RQ (human) (UniProt Q9NU19); test: co-IP; BT549 lysates (Pierce buffer: 25 mM Tris HCl pH 7.4, 150 mM NaCl, 1 mM EDTA, 1% NP-40, 5% glycerol), 2.5 mg on anti-HA magnetic beads, 30 min RT; immunoblot
T1 sequence: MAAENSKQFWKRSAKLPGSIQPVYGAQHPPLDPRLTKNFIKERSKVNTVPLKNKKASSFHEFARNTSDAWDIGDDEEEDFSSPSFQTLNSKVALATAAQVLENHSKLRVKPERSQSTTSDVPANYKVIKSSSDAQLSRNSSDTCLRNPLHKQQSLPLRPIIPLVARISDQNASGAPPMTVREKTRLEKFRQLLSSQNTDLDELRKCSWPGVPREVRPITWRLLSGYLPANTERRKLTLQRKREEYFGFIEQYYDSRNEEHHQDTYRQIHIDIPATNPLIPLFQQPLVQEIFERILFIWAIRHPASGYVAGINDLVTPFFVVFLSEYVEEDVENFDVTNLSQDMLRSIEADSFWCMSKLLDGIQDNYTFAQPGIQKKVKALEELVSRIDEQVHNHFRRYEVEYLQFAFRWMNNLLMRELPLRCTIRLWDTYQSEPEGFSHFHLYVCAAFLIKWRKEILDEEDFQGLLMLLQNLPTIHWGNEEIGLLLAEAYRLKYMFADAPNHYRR

HA-TBC1D22B (human) = biological target: T2, HA-TBC1D22B (human) (UniProt Q9NU19); test: as above
T2 sequence: T1 sequence with A274R, A309Q

| binding (HA-TBC1D22B-RQ (human)) | binding (HA-TBC1D22B (human)) | Substance |
| --- | --- | --- |
| binds | binds | Acyl-CoA binding domain containing 3 (ACBD3) (from UniProt Q9H3P7 1-528) |
| binds | binds | EGFR (from UniProt P00533 25-1210) (receptor) |
